Results from patent publication US8791145B2, “Agricultural formulations with acyl morpholines and polar aprotic co-solvents” (Akzo Nobel Chemicals International B.V., priority 2010, dated 2014).
Further values from the same series stand in other lists.

Experiment: Dilution of Imidacloprid formulation in water, ocular inspection
Format: physicochemical
Parameters: key: +: easily dissolved; −: permanent crystals; NS: Non soluble
Conditions: NPM, 200 g/l diluted to 0.4 g/l
Text: Formulations containing 200 g/l of Imidacloprid was formulated together with 40 g/l of an alcohol ethoxylate (2-propylheptanol ethoxylated with 8 moles of EO per mole of alcohol) and diluted to a final volume of one liter with each one of the solvents N-formyl morpholine, N-acetyl morpholine and N-propionyl morpholine along with a co-solvent. The co-solvents used were dimethylsulfoxide (DMSO), propylene carbonate (PC), dimethylformamide (DMF) and ethyl lactate (EL). Ethyl lactate is a protic solvent and is included in the experiment for comparison. The amount of each co-solvent, in % by weight of the total weight of morpholine and co-solvent, is seen in table 2. The solutions was diluted in water to an end concentration of imidacloprid of 0.4 g/l and the dilution was judged by ocular inspection with the naked eye, and in the table below, the following is used: • +: easily dissolved, • −: permanent crystals. • NS: Non soluble

Measured: Crystallization upon dilution in water

O=[N+]([O-])NC1=NCCN1Cc1ccc(Cl)nc1 [Imidacloprid]
NS: 5% EL | 10% EL | 15% EL | 20% EL | 25% EL | 30% EL | 50% EL
−: 0% EL
